According to article PMC7907060, “Interaction of Plasmodium falciparum apicortin with α- and β-tubulin is critical for parasite growth and survival” (Scientific Reports, 2021):
These are yes or no findings as the source states them, for the method shown. For part of these data: In cells and extracts the contact can be indirect. Some entries that bind do so weakly or less than the wild type.

Protein sequences, listed by entry. Tags and fused reporters are not part of them.
UniProt Q6ZLZ9: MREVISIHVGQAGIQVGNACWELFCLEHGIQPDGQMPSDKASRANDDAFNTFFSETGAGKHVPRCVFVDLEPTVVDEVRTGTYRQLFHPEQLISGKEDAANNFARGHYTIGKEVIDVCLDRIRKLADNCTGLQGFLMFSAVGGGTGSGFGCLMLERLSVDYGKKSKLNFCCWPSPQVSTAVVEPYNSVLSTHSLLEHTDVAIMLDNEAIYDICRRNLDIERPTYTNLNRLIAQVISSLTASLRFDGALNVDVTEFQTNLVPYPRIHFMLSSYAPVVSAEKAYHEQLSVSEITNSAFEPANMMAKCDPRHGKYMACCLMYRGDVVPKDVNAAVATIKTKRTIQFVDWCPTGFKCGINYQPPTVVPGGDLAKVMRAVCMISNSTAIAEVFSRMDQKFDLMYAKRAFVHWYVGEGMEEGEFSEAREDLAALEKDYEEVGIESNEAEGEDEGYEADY
UniProt Q7KQL5: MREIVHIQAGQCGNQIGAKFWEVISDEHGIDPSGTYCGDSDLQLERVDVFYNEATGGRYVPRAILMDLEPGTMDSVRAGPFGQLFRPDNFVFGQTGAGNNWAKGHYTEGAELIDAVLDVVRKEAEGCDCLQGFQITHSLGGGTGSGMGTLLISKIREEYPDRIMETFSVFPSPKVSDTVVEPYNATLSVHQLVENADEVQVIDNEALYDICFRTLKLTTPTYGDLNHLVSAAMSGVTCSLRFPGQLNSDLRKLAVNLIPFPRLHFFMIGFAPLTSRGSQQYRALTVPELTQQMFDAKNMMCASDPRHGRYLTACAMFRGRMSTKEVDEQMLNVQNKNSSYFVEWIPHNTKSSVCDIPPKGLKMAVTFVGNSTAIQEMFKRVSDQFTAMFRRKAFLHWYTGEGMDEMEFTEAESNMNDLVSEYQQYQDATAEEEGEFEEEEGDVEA

How the values were obtained:
[1] = biological target: T1, recombinant Plasmodium falciparum apicortin (Plasmodium falciparum) (UniProt C0H4E4); test: pull-down; recombinant PfApicortin (50 µg) bound to Ni-NTA beads, incubated with parasite lysate (100 µg) at 4 °C overnight, washed; tubulins detected by western blot; beads without apicortin as control; only the target purified
T1 sequence: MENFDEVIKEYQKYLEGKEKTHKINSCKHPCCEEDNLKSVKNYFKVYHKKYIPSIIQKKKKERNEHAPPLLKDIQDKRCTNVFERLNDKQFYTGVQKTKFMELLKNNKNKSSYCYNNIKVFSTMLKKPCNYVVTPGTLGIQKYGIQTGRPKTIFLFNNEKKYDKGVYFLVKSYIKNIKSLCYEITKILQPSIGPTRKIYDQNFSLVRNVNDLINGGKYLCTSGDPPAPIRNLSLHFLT

[2] = biological target: T1, recombinant Plasmodium falciparum apicortin (Plasmodium falciparum); test: ELISA; indirect ELISA: recombinant PfApicortin (100 ng) coated in bicarbonate buffer; recombinant tubulins 50-1600 ng, 1 h at 37 °C; detected with anti-tubulin antibody, absorbance at 450 nm; also with apicortin pre-incubated with 10 µM TMX (absorbance reduced); both purified

Plasmodium falciparum α-tubulin-I of the parasite lysate (from UniProt Q6ZLZ9 1-453)
binding [1]: binds

Plasmodium falciparum β-tubulin of the parasite lysate (from UniProt Q7KQL5 1-445)
binding [1]: binds

recombinant Plasmodium falciparum α-tubulin-I (from UniProt Q6ZLZ9 1-453)
binding [2]: binds
